## Screening data, single-dose tests

By UniProt entry, the sequences of proteins in these tests, tags left out.
UniProt P9WPC5, whole entry: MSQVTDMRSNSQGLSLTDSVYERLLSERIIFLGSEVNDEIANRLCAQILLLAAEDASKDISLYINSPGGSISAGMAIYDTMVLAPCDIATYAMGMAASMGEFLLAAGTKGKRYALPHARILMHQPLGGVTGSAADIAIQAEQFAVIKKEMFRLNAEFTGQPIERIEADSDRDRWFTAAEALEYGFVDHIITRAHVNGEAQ
UniProt P9WPC3, whole entry partner: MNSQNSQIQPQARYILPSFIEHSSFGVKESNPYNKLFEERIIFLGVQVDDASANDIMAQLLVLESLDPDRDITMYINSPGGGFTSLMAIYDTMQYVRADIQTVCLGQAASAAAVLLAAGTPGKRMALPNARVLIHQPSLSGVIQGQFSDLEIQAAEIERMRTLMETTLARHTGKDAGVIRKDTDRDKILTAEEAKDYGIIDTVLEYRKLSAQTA

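Protease assay of ClpP1P2, read by the AMC dye that it sets free. Target: ClpP1P2, Mycobacterium tuberculosis (UniProt P9WPC5 and UniProt P9WPC3). Concentration: 50 µM. Higher reads as stronger inhibition, judged from the few compounds that gave an IC50. Most other retested compounds had strongly negative values. About 69,000 compounds were tested under these conditions; 0.015% (about 10) showed 50% or more at least once.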

Each number is a percent effect as filed. The record does not define 0% and 100%; most values in the screen are far below 50% and negative numbers occur (in some assays of this library far below -100). This is an unselected part of the compounds tested.

SMILES | percent effect
CCOCc1cnc2n1CCN(Cc1scnc1C)C2C (centres undefined) | -18.71%
O=C([C@@H]1CCO[C@@H]2CCN(CCc3ccccc3)C[C@@H]21)N1CCCC1 | 19.8%
Cc1nc(O)c2nnn(C[C@H]3CCCN3C(=O)c3ccccc3F)c2n1 | -2.415%
COc1c(NC(=O)C(C)CCOc2ccccc2)c(C)nn1C (centres undefined) | 5.385%
Cc1noc(C)c1C(=O)N(Cc1ccsc1)CC1CCCO1 (centres undefined) | 2.749%
CCCc1cc(NCCCC2CCOC2)n2nccc2n1 (centres undefined) | 1.353%
CCOc1ccc2[nH]c(=O)c(CN3CCC(O)CC3)cc2c1 | -230.8%
CSc1ccc(C2CC(=O)Nc3c2c(=O)[nH]c2ncnn32)cc1 (centres undefined) | -14.86%
Cc1nonc1N1CCN(Cc2nc(CC3CC3)no2)CC1 | -7.064%
COC(=O)c1ccc(-c2cc(C(F)(F)F)cc(N(C)C)n2)cc1 | -21.84%
C[C@@H](NC(=O)c1ccc(Cl)cc1)c1onc(-c2cccnc2)c1C(=O)O | -6.857%
O=C(O)c1ccnc(-c2ccnc(COc3ccccc3Cl)n2)c1 | -16.05%
Cc1cc(-n2cnnn2)n2ncnc2n1 | 6.012%
Cn1ccnc1C1CCN(S(=O)(=O)c2ccc3[nH]c(=O)[nH]c3c2)CC1 | 3.642%
COc1ncccc1NC(=O)NCC1CC1 | 0.7431%
CCN1C(=O)[C@H]2CN(CC(C)C)C[C@H]2C12CCN(S(C)(=O)=O)CC2 | -1.304%
N#Cc1ccc(N2CCCN(CC(N)=O)CC2)cc1 | 2.264%
Cc1ccc(S(=O)(=O)NC(=O)CCc2ccccc2)cc1N(C)C | 2.166%
COC(=O)CSc1nnc(CCNC(=O)OC(C)(C)C)o1 | 17.04%
Cc1c(CN2CCCC(C(=O)c3ccc(C(C)(C)C)cc3)C2)cnn1C (centres undefined) | -12.51%
CC(C)(C)n1cc(C(=O)N2CCN(Cc3cccnc3)CC2)cn1 | -16.99%
Cc1ccc(Nc2nccc(C3CCCN(CC(=O)N(C)C)C3)n2)nc1 (centres undefined) | 2.242%
COc1cccc(N2CCN(CCC(=O)NC3CCCCC3)CC2)c1 | -2.142%
CN1CCC(CNC(=O)NCc2ccc(N(C)C)cc2)CC1 | -0.6206%
CCc1nc(NCc2ccccn2)c2c(n1)c(C)nn2C | -4.741%
CC(C)NC1CC2(CCNCC2)c2cc(F)ccc21 (centres undefined) | 10.36%
CN(C)CC1CN(c2ncnc3[nH]ccc23)CCO1 (centres undefined) | 8.127%
Cc1nc(NC(=O)c2c(-n3cnnn3)sc(C)c2C)sc1C | 0.7627%
Cn1ncc2c1NC(=O)CC2c1cc2c(cc1Cl)OCO2 (centres undefined) | -6.93%
Cc1nn(C)c(C)c1-c1ccc(=O)n(C(C)C(=O)NC2CCCC2)n1 (centres undefined) | -10.05%
CO[C@@H]1CCN(Cc2c(C)noc2C)[C@@H]2CN(Cc3ccco3)C[C@@H]21 | 1.06%
Cc1nc(N(CCC(N)=O)Cc2ccccc2)c2nc(C)oc2n1 | 8.298%
COc1ccc(S(=O)(=O)NCCCc2nnc3nc(C)cc(C)n23)cc1 | -16.4%
CN(CC(=O)N1CC(C)(C)[C@@](C)(O)C1)Cc1ccncc1 | 5.421%
CN(C)CCCN(C)c1nccc(N2CCN[C@H]3CS(=O)(=O)C[C@H]32)n1 | -7.642%
O=C(NCc1n[nH]c2c1CCCCC2)c1cnn2c1CCCC2 | -24.73%
CCn1cc(CN2CCCN(C(=O)c3sc(C)nc3C)CC2)cn1 | -7.944%
COCCN1CCC2(CC1)CC(c1ccccc1)C(=O)N2C (centres undefined) | -15.56%
CCO[C@H]1CN(C)C[C@@H]1NC(=O)c1cc(C)nc2c(C)cccc12 | -8.18%
COCCc1noc(C2CCN(S(=O)(=O)c3cccs3)CC2)n1 | -1.885%
NC(=O)c1ccc(CNC2CC2)cc1 | 15.77%
COCCC(=O)N1CC2(CCN(Cc3cccc(Cl)c3)CC2)C1 | -0.946%
CCN(Cc1ccoc1)C(=O)NC1CCN(CC=C(C)C)CC1 | -2.621%
CCOC(=O)COc1cccc(NC(=O)C2COCCO2)c1 (centres undefined) | -1.244%
CNc1ncc(CN2CCC(c3nnsc3S(C)(=O)=O)CC2)cn1 | 1.312%
c1cc2c(cc1CN1CCCC3(CCOC3)C1)OCO2 (centres undefined) | -8.93%
Cc1c(CN2CCCCC2)c(O)n(CCO)c(=O)c1C#N | -11.12%
O=C1Nc2ccccc2CC12CCN(CCO)C2 (centres undefined) | 10.33%
CCC(CC)C(=O)NCc1cn2cc(Br)ccc2n1 | 2.215%
NC(=O)CN1CCCN(C(=O)Cc2cccc(C(F)(F)F)c2)CC1 | -15.56%
CC(=O)c1cnc(NCCN2CCCC(c3ccccc3)C2)nc1C (centres undefined) | 11.58%
CS(=O)(=O)NCCCn1ccc2ccccc21 | 9.694%
CCc1ccc(NS(=O)(=O)c2cc3c(c(C(=O)O)c2)OCCO3)cc1 | -6.438%

The first 5 entries again:

SMILES	percent effect
CCOCc1cnc2n1CCN(Cc1scnc1C)C2C (centres undefined)	-18.71%
O=C([C@@H]1CCO[C@@H]2CCN(CCc3ccccc3)C[C@@H]21)N1CCCC1	19.8%
Cc1nc(O)c2nnn(C[C@H]3CCCN3C(=O)c3ccccc3F)c2n1	-2.415%
COc1c(NC(=O)C(C)CCOc2ccccc2)c(C)nn1C (centres undefined)	5.385%
Cc1noc(C)c1C(=O)N(Cc1ccsc1)CC1CCCO1 (centres undefined)	2.749%

Measurements from “University of Dundee, Small-Polar-MMV Screening Library” (2021), ChEMBL document CHEMBL3988442.